We go through 108 sequences from PubChem BioAssay AID1347426 (Functional Genomics Laboratory (NCATS/FGL), 2020).

In all, about 31,000 sequences went through this assay and about 1,400 (4.5%) were called active.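 The calls were made as follows: active = median seed-adjusted z-score above 1 or below -1; inactive = the rest.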 Some of the results follow.

A short description of the assay: Novel Modifiers of Survival Motor Neuron (SMN) Protein: Gene Identification via Genome-wide siRNA Screen.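 Also: luminescence tracks full-length SMN protein made from the SMN2 reporter.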 As to conditions: HEK293T SMN2-luciferase reporter, siRNA knockdown, 72 h; actives lie on both sides. An outline of the steps:
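Luciferase signal, proportional to full-length SMN made from an SMN2 cDNA reporter in stable HEK293T cells, was read 72 h after siRNA reverse transfection. Values were expressed as MAD scores after non-targeting-control normalization and log10 conversion; seed analysis flagged off-targets.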
In general terms: Reporter assays use an easily measured gene product as a stand-in for the process of interest.
As for CUACUCUUCUGACACGGAATT against LDLRAD3, the median seed-adjusted z-score was inactive: -0.133.

For the sequence GGGAGAACGUGAACAGGAATT against TRIM11, the median seed-adjusted z-score was inactive: -0.251.

Regarding GGAUAUUGGUCCCAUUCUATT against HSDL1, the median seed-adjusted z-score was inactive: 0.0547.

With CCAGGUUUUGAGGAGCUUATT against FNTB, the median seed-adjusted z-score is inactive: -0.0163.

As to GAGCUGGAGAGACUAGAAATT against TLK2, the median seed-adjusted z-score is inactive: 0.347.

As for GCGCUCUCAUUUUACCAAATT against SREBF2, the median seed-adjusted z-score is inactive: -0.606.

Take GGGAAAAUGAGCUAACGUATT against CD59: the median seed-adjusted z-score is inactive: 0.79.

For CACCACCGCUCAUCACUUATT against ZNF76, the median seed-adjusted z-score was inactive: -0.0395.

Take UAUCCAUUCCUGUUCGACATT against PAQR6: the median seed-adjusted z-score was inactive: 0.632.

Turning to CCGUGAAUGUGCAAGACAATT against ESAM, the median seed-adjusted z-score is inactive: 0.314.

Consider CGGACAUCGUGGUUAAGGATT against FBXO6, for which the median seed-adjusted z-score is inactive: 0.0361.

As to GCUCAACAGUCAAGGCUUUTT against RS1, the median seed-adjusted z-score is inactive: -0.684.

On to CCCAGACCCUGAUACUUCATT against MEF2A, for which the median seed-adjusted z-score was inactive: -0.0658.

With AGAUGUGAAUGGACCCGAATT against CHP, the median seed-adjusted z-score was inactive: -0.35.

As to CGCUCUAUGGGAUUUACUATT against CLPS, the median seed-adjusted z-score is inactive: -0.799.

In the case of GCAGUAUGGAGGAUAUAGATT against SS18, the median seed-adjusted z-score is inactive: 0.34.

With CGAACUACCUGUUGCGCAATT against GAL3ST3, the median seed-adjusted z-score is inactive: -0.54.

For CUGUGAAUAUAUAACUCUATT against TRUB1, the median seed-adjusted z-score was inactive: 0.561.

As for GCAUGUACUUUCGCAUGAATT against PLA2G6, the median seed-adjusted z-score is inactive: -0.123.

Consider GGAACUACAGCGAAUGCUATT against TAF1, for which the median seed-adjusted z-score is inactive: -0.582.

Consider GAAAGUUGCUGAAUAACCATT against PPP2R3A, for which the median seed-adjusted z-score is inactive: 0.175.

Regarding GAAGGUUUCUGUGCCCUCATT against SLC4A9, the median seed-adjusted z-score is inactive: 0.

For GGCAUAAGUUUGUCGAGAUTT against RYR2, the median seed-adjusted z-score was inactive: -0.354.

As for GGAUUACCCAGACAAGACATT against SLC35A1, the median seed-adjusted z-score was inactive: 0.00794.

As for CCCUGUGCAUGGACAUUGATT against FBN3, the median seed-adjusted z-score is inactive: 0.264.

In the case of CCGCUACCCUAAUAUCGAATT against SNRNP200, the median seed-adjusted z-score is inactive: 0.889.

As for CCCUCAGACUGUACGCAGATT against PGM5, the median seed-adjusted z-score is inactive: -0.0543.

AGAUAGUGACCGCCCGUGATT against EMID1: the median seed-adjusted z-score is inactive: 0.979.

GCUCAAAUGGAGAACUAAATT against GALNT8: the median seed-adjusted z-score was inactive: -0.283.

As to GCACCUCUCAAGCAGAAAATT against IL1B, the median seed-adjusted z-score is inactive: -0.21.

Turning to CCAACUCAGCAUCCCACAATT against STK16, the median seed-adjusted z-score was inactive: 0.113.

Consider ACGAAUUCGUGCUCAAGGATT against LMX1B, for which the median seed-adjusted z-score is inactive: 0.125.

For CAUUGAUCGUAUCGACAAATT against AGPAT5, the median seed-adjusted z-score was inactive: 0.571.

As for GGAUCUGACAGGAAAUAGATT against MBL2, the median seed-adjusted z-score is inactive: -0.252.

For AAAUGGGUCUUAUGACAUUTT against ACAA1, the median seed-adjusted z-score is inactive: 0.384.

For the sequence CAAGGGCCGUGUUACAUGATT against TMCO3, the median seed-adjusted z-score was inactive: -0.441.

In the case of GGAACUUUUUCGUCGGUAUTT against RNGTT, the median seed-adjusted z-score is active: -1.55.

Consider GCGUGACAAGGACCACAAATT against MMAA, for which the median seed-adjusted z-score is inactive: -0.664.

With UGCUAAUGGUGGAAACCCATT against TGFB1, the median seed-adjusted z-score is inactive: 0.

As to GCAGUGGUCGCAUCACAUATT against PITPNM3, the median seed-adjusted z-score was inactive: -0.0378.

On to GCCUGGUCAAGAAACUCAATT against SMAD3, for which the median seed-adjusted z-score was inactive: -0.715.

For CUAUCAUAGUGACAAGCGATT against GJA5, the median seed-adjusted z-score is inactive: 0.707.

Turning to GCUCCACAGCAUAUGCUCATT against NFIL3, the median seed-adjusted z-score was inactive: 0.4.

On to GAAAGUCCACAUUACGGAATT against ZNF35, for which the median seed-adjusted z-score was inactive: -0.332.

On to GAAUUGUGCCUGCUAUUAUTT against ADAM9, for which the median seed-adjusted z-score was inactive: 0.

Consider GGACAGACGGAACAAGGGATT against AQP10, for which the median seed-adjusted z-score was inactive: -0.09.

With GGUUCAAUGGAAAAGGGAATT against DLX6, the median seed-adjusted z-score is inactive: 0.0275.

Consider GGUGGACAGAGGAAAAUCATT against ARL3, for which the median seed-adjusted z-score was inactive: 0.551.

With ACUGGAUGUUUAUUUAUAATT against ATP6V0C, the median seed-adjusted z-score was inactive: -0.389.

Turning to GGAAGUAUUACUUAAUUCATT against NCOA4, the median seed-adjusted z-score is inactive: -0.0638.

For ACACGCAUAUCUUUACUUUTT against TBX21, the median seed-adjusted z-score was inactive: -0.454.

As to GCAUGAUACAGACAGCGCATT against ATP8A1, the median seed-adjusted z-score is inactive: 0.

On to GGAUCCGUAUUGAUGAUGATT against RIT1, for which the median seed-adjusted z-score was inactive: -0.157.

With GGAACUCAUUAUACAAUGATT against CLCN3, the median seed-adjusted z-score was inactive: -0.0801.

Turning to ACAAGGACUAUUACAGAUATT against PLA2G2D, the median seed-adjusted z-score is inactive: 0.361.

Take CCAAGUUCAAGAAACUCUATT against DLX3: the median seed-adjusted z-score was inactive: 0.

Consider GGAUAGUGUACGUGAAUGATT against CPE, for which the median seed-adjusted z-score was inactive: 0.139.

Consider GGCCGAUUGUGAACAUGGATT against TERT, for which the median seed-adjusted z-score is inactive: -0.698.

Regarding UGCUGUGCCUCGAAUGUCATT against GPR172A, the median seed-adjusted z-score is inactive: 0.382.

GGCUUUUUAGAUUUCGAAATT against TIGD7: the median seed-adjusted z-score is inactive: -0.116.

For GCAACUCCAUGUUUCAUAATT against PRMT1, the median seed-adjusted z-score was inactive: -0.596.

For the sequence CAUCGUCUCUGGGUAUAUUTT against PRIM1, the median seed-adjusted z-score was inactive: -0.23.

As for GCAGCAAUCCUGUUUGGAUTT against SLC2A11, the median seed-adjusted z-score was inactive: 0.

Consider CAAAAUACAGAGUUUCUUUTT against RILP, for which the median seed-adjusted z-score is inactive: 0.503.

With ACAUACUUCCGGCAGAACATT against ATP6V1G1, the median seed-adjusted z-score is inactive: 0.311.

With GGAGGUACCCAUUCCAGAATT against E2F5, the median seed-adjusted z-score is inactive: -0.628.

For GAGCAAGGGCUGUAUCGAATT against ARHGAP26, the median seed-adjusted z-score was inactive: 0.34.

On to GGUGUUUGAUUGUGAGAAUTT against UBE2G1, for which the median seed-adjusted z-score is inactive: 0.174.

As to CGCCUACAACCUCAACUAUTT against LCT, the median seed-adjusted z-score is inactive: 0.411.

As to GGAAGACAUUUACCGACCATT against BCAT2, the median seed-adjusted z-score was inactive: 0.0438.

Regarding CUCCAGUGCUUGAAUAUCATT against KLK5, the median seed-adjusted z-score was inactive: 0.

As for CGGUUAGAUUUGGACAGUATT against ARHGAP9, the median seed-adjusted z-score was inactive: 0.

As for GUACCACUGUAAGAAGAAATT against LBR, the median seed-adjusted z-score was inactive: 0.303.

With GGAUCCCAGUGAAACGAAATT against IDI2, the median seed-adjusted z-score is inactive: 0.578.

Consider GAGGUGAUCUUAGACCUGATT against QSOX2, for which the median seed-adjusted z-score is inactive: 0.498.

On to GGAUUUUCUUCCUAAACAATT against SOX21, for which the median seed-adjusted z-score is inactive: -0.412.

On to GGACAACCAAGUUUGGAAATT against FCRLA, for which the median seed-adjusted z-score was inactive: 0.03.

As for GAAUCUGCGCUACUAUGUATT against RASA2, the median seed-adjusted z-score is inactive: -0.913.

Turning to GGAACACCCGUUUAACAAATT against ASH2L, the median seed-adjusted z-score is inactive: -0.464.

With CGCACAACGUGGAUAGGAATT against TGM7, the median seed-adjusted z-score was inactive: 0.244.

GCAUCGCAGUGCUAAACAUTT against DGKA: the median seed-adjusted z-score is active: -1.36.

As for UGAUGCUUCUGCGAGAUUATT against METTL2A, the median seed-adjusted z-score was inactive: -0.49.

As for GGGUGGUGGUUAUAAUACUTT against XK, the median seed-adjusted z-score is inactive: 0.403.

Take GGGAAAUACGGAGUACUUUTT against SLC35D2: the median seed-adjusted z-score is inactive: -0.127.

Regarding GGAGCAGCUUCGUACAUAUTT against DUSP19, the median seed-adjusted z-score is inactive: 0.343.

With GGAUGAAAUAAUCCUAAUATT against SNX25, the median seed-adjusted z-score is inactive: -0.26.

Turning to GCACGUCUUCUGUCCAUUUTT against EFCAB6, the median seed-adjusted z-score is inactive: 0.206.

Regarding GCACUUCUCUUAAGGACGATT against UNC13B, the median seed-adjusted z-score is inactive: -0.0216.

Take GAACGUACCAGGGACUUAATT against TNC: the median seed-adjusted z-score was inactive: -0.253.

Regarding UGAAGAAUGCAGUUAAAUATT against CCL17, the median seed-adjusted z-score was inactive: 0.178.

Take CUACGAAUUUACUAUACUATT against ITPR1: the median seed-adjusted z-score was inactive: -0.0888.

Regarding GCUUAAGACGGGACAUGAATT against DHRS9, the median seed-adjusted z-score is inactive: -0.0523.

As to AGGACUGCAUUGUUUUCUATT against RHOC, the median seed-adjusted z-score is inactive: -0.579.

Regarding AGUACAUCGUGGUCCAAGATT against SRGAP2, the median seed-adjusted z-score is inactive: 0.0323.

As for GGACUAUGUCUGCCUAUGATT against SCN7A, the median seed-adjusted z-score was inactive: 0.

On to GAAGCGAAAUUAGUGCGGATT against C1QBP, for which the median seed-adjusted z-score was inactive: 0.754.

Regarding UUACAUUGAUUACACUGGATT against RBM24, the median seed-adjusted z-score was inactive: 0.0471.

Consider GCCGUAGAGAAGGAGCUGATT against DNASE1L1, for which the median seed-adjusted z-score was inactive: 0.542.

On to GACUCGCACUAUUCGCAGATT against BRF2, for which the median seed-adjusted z-score is inactive: -0.00969.

In the case of GCAGGUGUUUCAUGAAGAATT against PRPH2, the median seed-adjusted z-score is inactive: 0.0931.

Take GCUGACCAUUGGGACAGUATT against EZH2: the median seed-adjusted z-score is inactive: 0.313.

On to CCAUCUCCAUGGACCUGCATT against AP1B1, for which the median seed-adjusted z-score is inactive: -0.161.

Consider CCGAGAAUCAAGAACUUAATT against ZCCHC8, for which the median seed-adjusted z-score was inactive: 0.356.

As for CCCUGCACGGCUACAUUGATT against LHX6, the median seed-adjusted z-score was inactive: -0.717.

Consider GAACGAAUACGAAUGGACATT against MXI1, for which the median seed-adjusted z-score was inactive: 0.348.

With CAGUCUGGGUGUAAUCGUATT against ZEB1, the median seed-adjusted z-score is inactive: -0.163.

For GGAUAUAUGGAGGUGAUAATT against SLC6A6, the median seed-adjusted z-score is inactive: 0.0448.

Consider CGCUCGAAAUUACACGGUATT against ADAM12, for which the median seed-adjusted z-score was inactive: -0.343.
